Laboratory results from PubChem BioAssay AID1671190 (National Center for Advancing Translational Sciences (NCATS), 2021).
Out of some 580,000 compounds screened, about 6,100 (1.1%) were called active. The inconclusive results got no clear call from the source; some entries with a clear call stand among them for comparison. The call rests on the fitted dose curve; in most records, active means well fitted inhibition curve with a large enough effect; inconclusive means small, poorly fitted or top-dose-only effect, or another doubt; inactive means no such curve, though single readings can be large or run the other way. A potency beside an inconclusive call is a rough fit, not a confirmed value.

The chains behind the UniProt entries cited, without tags or fusion partners. Where a name states a change or a piece, a line headed by the entry shows the natural chain unless it says otherwise.
UniProt P18054: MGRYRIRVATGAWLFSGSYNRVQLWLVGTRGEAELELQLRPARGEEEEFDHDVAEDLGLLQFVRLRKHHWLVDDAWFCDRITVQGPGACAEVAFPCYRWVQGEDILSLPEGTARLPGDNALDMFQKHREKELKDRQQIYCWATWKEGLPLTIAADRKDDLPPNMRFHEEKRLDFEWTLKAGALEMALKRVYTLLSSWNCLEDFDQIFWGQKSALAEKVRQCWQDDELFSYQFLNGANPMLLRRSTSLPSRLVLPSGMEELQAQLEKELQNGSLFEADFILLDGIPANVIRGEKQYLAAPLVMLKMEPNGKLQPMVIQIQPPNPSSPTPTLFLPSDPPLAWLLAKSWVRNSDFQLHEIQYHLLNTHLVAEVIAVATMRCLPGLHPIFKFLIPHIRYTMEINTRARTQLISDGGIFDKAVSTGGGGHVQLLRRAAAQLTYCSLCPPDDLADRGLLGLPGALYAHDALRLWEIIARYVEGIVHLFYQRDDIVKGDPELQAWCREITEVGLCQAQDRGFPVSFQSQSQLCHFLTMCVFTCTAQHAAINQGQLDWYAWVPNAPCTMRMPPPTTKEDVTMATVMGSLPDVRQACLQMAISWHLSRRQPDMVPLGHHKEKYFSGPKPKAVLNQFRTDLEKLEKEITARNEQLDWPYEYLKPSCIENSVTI

biological target: Polyunsaturated fatty acid lipoxygenase ALOX12 (Homo sapiens) (UniProt P18054); experiment: Primary qHTS assay for inhibitors of human arachidonate 12S-lipoxygenase (ALOX12): Round 2; conditions: purified 12hLO, xylenol orange hydroperoxide absorbance; activity change, negative = inhibition: at 108 µM (top of the series) unless noted
How it was run: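 Purified human 12hLO at 150 nM in 25 mM Hepes, 0.01% Triton X-100, pH 7.0, preincubated 15 min at room temperature with compound. Reaction started with 40 uM arachidonic acid, 30 min at room temperature. Hydroperoxide measured by Fe-xylenol orange, 573/405 nm absorbance ratio.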
On the % scale 0 is the no-effect control and ±100 the full control effect; potency means the concentration at half of the fitted maximal effect.

Row | Structure (SMILES) | Potency | activity change, negative = inhibition
1 | CCOc1ccc(NC(=O)COC(=O)c2n[nH]c3ccccc23)cc1 | inconclusive: 100 µM [inhibitor, partial curve, poor fit] | 
2 | Cc1ccc(S(=O)(=O)N2CCN(C(=O)COC(=O)c3c(C)cc(C)cc3C)CC2)c(C)c1 | inconclusive: 28.2 µM [inhibitor, single point] | 
3 | Cc1ccc(-c2n[nH]c(-c3ccc(C)cc3)c2C)cc1 |  | inactive: 7.12%
4 | CC(C)CC(=O)Nc1ccc(-c2cc3cc(F)ccc3[nH]2)cc1 |  | inactive: 9.63%
5 | CCCCCC(=O)NNC1=NCC(Cc2cccc(Cl)c2)S1 (configuration not stated) |  | inactive: -28.6%
6 | Cc1noc(C)c1S(=O)(=O)NC(=O)C1(C)CCN1C(=O)C1(c2ccc(Cl)cc2)CCC1 (configuration not stated) | inconclusive: 100 µM [inhibitor, single point] | 
7 | Cc1cc(Cl)ccc1NC(=O)CCn1nc(C)c2c(C)n(-c3ccccc3)nc2c1=O |  | inconclusive: -30.8% [inhibitor]
8 | CCCC(O)(CCN1CCOCC1)c1ccc(Br)cc1 (configuration not stated) | inconclusive: 79.4 µM [inhibitor, partial curve, poor fit] | 
9 | O=C(O)/C=C/c1ccc(-c2ccc(Br)cc2Cl)o1 | active: 7.94 µM | 
10 | O=C(O)c1ccc(Cl)c(NC(=S)NC(=O)c2ccccc2[N+](=O)[O-])c1 | inconclusive: 50.1 µM [inhibitor, partial curve, poor fit] | 
11 | C=CCOc1c2ccc(C(=O)NCc3ccc(OC)cc3)cc2nn1C | inconclusive: 100 µM [inhibitor, single point] | 
12 | Cc1cccc(C)c1OCCn1c(C2CC(=O)N(Cc3ccc(F)cc3)C2)nc2ccccc21 (configuration not stated) | inconclusive: 44.7 µM [inhibitor, partial curve] | 
13 | COc1ccc(C(=O)NC(CC(=O)O)c2ccc(C(C)(C)C)cc2)cc1 (configuration not stated) | inconclusive: 50.1 µM [inhibitor, partial curve, poor fit] | 
14 | COc1cccc(C(=O)Nc2ccc3oc(-c4cccc(Cl)c4)nc3c2)c1 | inconclusive: 31.6 µM [inhibitor, partial curve] | 
15 | O=Cc1cc2cc(Br)ccc2[nH]1 |  | inactive: 10.5%
16 | S=C(NCCCN1CCOCC1)Nc1ccc(-c2nc3ccccc3[nH]2)cc1 |  | inactive: 0%
17 | COC(=O)CNC(=O)c1ccc(-c2ccccc2)cc1 | inconclusive: 141 µM [inhibitor, single point] | 
18 | CN(C)C(=O)COc1ccc(S(=O)(=O)c2ccc(OCC(=O)N(C)C)cc2)cc1 |  | inactive: 0%
19 | Nc1c2c(nc3ccccc13)N(C1CCCCC1)CC2 | inconclusive: 0.251 µM [inhibitor, full curve, poor fit] | 
20 | Cc1ccc(-n2ccc(=O)c(C(=O)O)n2)cc1 | inconclusive: 35.5 µM [inhibitor, partial curve, poor fit] | 
21 | Cc1nnc(SCc2cc(=O)[nH]c(=S)[nH]2)s1 |  | inactive: -9.19%
22 | CCOC(=O)C(Nc1ccccc1NC(=O)OC(C)(C)C)C(=O)Nc1c(C)cccc1C (configuration not stated) | inconclusive: 2.51 µM [inhibitor, full curve, poor fit] | 
23 | COc1cc(/C=C(\C#N)C(=O)Nc2cccc3ncccc23)cc(OC)c1OC | inconclusive: 70.8 µM [inhibitor, partial curve, poor fit] | 

Row | Structure (SMILES) | Potency | activity change, negative = inhibition
24 | Cn1cc([N+](=O)[O-])c(C(=O)Nc2ccc(C3CCCCC3)cc2)n1 |  | inactive: -26.9%
25 | Cc1cc(Nc2ccc(OC(F)F)cc2)cc(=O)n1-c1ccc(OC(F)F)cc1 | inconclusive: 5.01 µM [inhibitor, full curve] | 
26 | Cc1ccc(S(=O)(=O)N2CCCN(C)c3ccccc32)cc1C | inconclusive: 35.5 µM [inhibitor, partial curve] | 
27 | CS(=O)(=O)N1CCN(c2ccccc2NC(=O)c2ccc3c(c2)OCCO3)CC1 |  | inactive: -0.11%
28 | O=C(Nc1cc(S(=O)(=O)N2CCOCC2)ccc1N1CCCCC1)c1ccccc1Br | inconclusive: 39.8 µM [inhibitor, partial curve, poor fit] | 
29 | Cc1ccc(NC(=O)CN2C(=O)C(C)(C)c3cc(S(=O)(=O)N4CCCCC4)ccc32)cc1F |  | inactive: 1.73%
30 | COc1ccc(CN2CCOc3nc(-c4ccc(C(=O)N(C)C)cc4)ncc3C2=O)cc1 | inconclusive: 7.94 µM [inhibitor, full curve, poor fit] | 
31 | CCOC(=O)/C(=C/C1=CC(=C/N(C)C)/C(=O)O1)C(C)=O | inconclusive: 112 µM [inhibitor, single point] | 
32 | CCN(CC)S(=O)(=O)c1cc(NC(=O)C2CCCN(C(=O)c3ccc(F)cc3)C2)ccc1C (configuration not stated) | inconclusive: 100 µM [inhibitor, partial curve, poor fit] | 
33 | CC(=O)/C(=N\Nc1ccccc1Cl)Sc1nnc(-c2ccccc2)n1-c1ccccc1 | inconclusive: 44.7 µM [inhibitor, partial curve, poor fit] | 
34 | CCCNC(=O)c1ccc2nc(-c3ccccc3)c(-c3ccccc3)nc2c1 |  | inactive: 29.5%
35 | CCOc1ccc(NC(=O)COC(=O)COc2ccc(C3SCCCS3)cc2)cc1OCC |  | inactive: 5.65%
36 | COc1ccc(N2CCC(CNC(=S)Nc3cccc(C)c3)C2)cc1 (configuration not stated) | inconclusive: 50.1 µM [inhibitor, partial curve, poor fit] | 
37 | CC(C)CC(NC(N)=O)C(=O)NCCc1ccc(C(F)(F)F)cc1 (configuration not stated) | inconclusive: 17.8 µM [inhibitor, partial curve] | 
38 | O=C(C=CC(=O)Nc1ccc(F)cc1F)Nc1ccc(F)cc1F | inconclusive: 141 µM [inhibitor, single point] | 
39 | COC(=O)c1ccc(C(=O)Nc2ccc(-c3nc4cc(NC(=O)c5ccc(C(=O)OC)cc5)ccc4o3)cc2)cc1 |  | inactive: 0.328%
40 | Cc1ccc(NC(=S)NCCc2ccccc2)c(C)c1 | inconclusive: 44.7 µM [inhibitor, partial curve] | 
41 | COc1cccc(C(=O)OCc2cc3ccccc3[nH]c2=O)c1 |  | inactive: 12.5%
42 | CCCc1nnc(NC(=O)CCS(=O)(=O)c2ccccc2)s1 |  | inactive: -3.76%
43 | CCSc1ncc(Cl)c(C(=O)Nc2ccc(S(=O)(=O)Nc3nccc(C)n3)cc2)n1 | inconclusive: 126 µM [inhibitor, partial curve, poor fit] | 
44 | CCCCS(=O)(=O)NCCc1ccc(C(=O)O)cc1 | inconclusive: 35.5 µM [inhibitor, partial curve, poor fit] | 
45 | CN(CC(=O)Nc1ccccc1N1CCOCC1)S(=O)(=O)c1ccc(F)cc1 | inconclusive: 50.1 µM [inhibitor, partial curve, poor fit] | 
46 | O=S(=O)(c1ccc(Sc2nnnn2C2CCCC2)nc1)N1CCCC1 | inconclusive: 4.47 µM [inhibitor, full curve, poor fit] | 

Row | Structure (SMILES) | Potency | activity change, negative = inhibition
47 | O=C(COc1ccc([N+](=O)[O-])cc1)Nc1nnc(-c2cccnc2)s1 | inconclusive: 70.8 µM [inhibitor, partial curve, poor fit] | 
48 | CCC(C)C(=O)Nc1nnc(CCc2ccccc2)s1 (configuration not stated) | inconclusive: 5.01 µM [inhibitor, full curve, poor fit] | 
49 | Cc1cccc(Nc2nc(-c3ccc(C)c(C)c3)cs2)c1 | inconclusive: 44.7 µM [inhibitor, partial curve, poor fit] | 
50 | COc1cc(/C=C2\Oc3cc(OS(C)(=O)=O)cc(C)c3C2=O)cc(OC)c1OC |  | inactive: -19.1%
51 | Cc1ccc(-c2cc(=O)c3ccc4ccccc4c3o2)cc1 | inconclusive: 141 µM [inhibitor, partial curve, poor fit] | 
52 | Cc1cccc(NC(=S)NC2CCCC2)c1 | inconclusive: 5.62 µM [inhibitor, full curve, poor fit] | 
53 | COC(=O)c1ccc(NC(=O)C2CCN(C(=O)Nc3ccccc3)CC2)cc1 | inconclusive: 79.4 µM [inhibitor, partial curve, poor fit] | 
54 | COCC(C)NC(=O)C(C)N1c2cccc3cccc(c23)S1(=O)=O (configuration not stated) |  | inactive: -22.9%
55 | Cc1cc(=S)n2cn[nH]c2n1 | active: 0.447 µM | 
56 | C/C=C/c1ccc(OCC(=O)N2CCc3cc(OC)c(OC)cc3C2)c(OC)c1 |  | inactive: 0.67%
57 | Cc1cc(OCc2n[nH]c(=S)n2-c2ccccc2)ccc1Cl | inconclusive: 44.7 µM [inhibitor, partial curve, poor fit] | 
58 | O=C(COC(=O)c1cc(S(=O)(=O)N2CCCCC2)ccc1N1CCOCC1)c1ccc(Cl)cc1 |  | inactive: -24.7%
59 | CC1(Oc2ccc(Cl)cc2)CCN(Cc2ccc(-c3ccccn3)cc2)C1 (configuration not stated) | inconclusive: 44.7 µM [inhibitor, partial curve, poor fit] | 
60 | CCOC(=O)CCC(=O)Nc1cc(S(=O)(=O)N2CCOCC2)ccc1N1CCCCC1 |  | inactive: -4.79%
61 | N#Cc1c(-c2cccs2)cc(-c2cccs2)[nH]c1=O |  | inactive: 0%
62 | Cc1ccc(-c2nn3c(N(C)C)cc(C)nc3c2C)cc1 |  | inactive: 2.99%
63 | CCOc1ccc(N2CC(C(=O)NCc3ccc4c(c3)OCO4)CC2=O)cc1 (configuration not stated) | inconclusive: 126 µM [inhibitor, partial curve, poor fit] | 
64 | COc1ccc(CNC(=O)C2Cc3c(-c4cccc(C(C)=O)c4)ccnc3O2)cc1OC (configuration not stated) | inconclusive: 44.7 µM [inhibitor, partial curve, poor fit] | 
65 | CCCN1C(=O)/C(=C/c2ccccc2OCc2ccc(C(=O)O)cc2)NC1=S | inconclusive: 44.7 µM [inhibitor, partial curve, poor fit] | 
66 | CCN1CCN(c2ccc(S(=O)(=O)N3CCCCC3)cc2NC(=O)/C=C/c2cccc(OC)c2OC)CC1 | inconclusive: 50.1 µM [inhibitor, partial curve, poor fit] | 
67 | O=C(C[C@@H]1O[C@H](CNS(=O)(=O)c2ccc(Cl)cc2)[C@@H](O)C1O)N1CCN(c2ccccc2)CC1 (some centres not stated) | inconclusive: 31.6 µM [inhibitor, full curve] | 

In the list so far, these contain a nitro group on carbon.
Row | Structure (SMILES) | Potency | activity change, negative = inhibition
10 | O=C(O)c1ccc(Cl)c(NC(=S)NC(=O)c2ccccc2[N+](=O)[O-])c1 | inconclusive: 50.1 µM [inhibitor, partial curve, poor fit] | 
24 | Cn1cc([N+](=O)[O-])c(C(=O)Nc2ccc(C3CCCCC3)cc2)n1 |  | inactive: -26.9%
47 | O=C(COc1ccc([N+](=O)[O-])cc1)Nc1nnc(-c2cccnc2)s1 | inconclusive: 70.8 µM [inhibitor, partial curve, poor fit] | 
